Article PMC4226561
These are yes or no findings as the source states them, for the method shown. Some binding calls cover weakened binding; strength is not graded here. Where a sequence is shown, tags or fusion partners need not be part of it.

B1: KORRIGAN1 (KOR1), complete protein (AA 1 to 621), MbYTH fusion (protein, UniProt Q38890 1-621)
chain: MYGRDPWGGPLEINTADSATDDDRSRNLNDLDRAALSRPLDETQQSWLLGPTEQKKKKYVDLGCIIVSRKIFVWTVGTLVAAALLAGFITLIVKTVPRHHPKTPPPDNYTIALHKALKFFNAQKSGKLPKHNNVSWRGNSGLQDGKGETGSFYKDLVGGYYDAGDAIKFNFPMAYAMTMLSWSVIEYSAKYEAAGELTHVKELIKWGTDYFLKTFNSTADSIDDLVSQVGSGNTDDGNTDPNDHYCWMRPEDMDYKRPVTTCNGGCSDLAAEMAAALASASIVFKDNKEYSKKLVHGAKVVYQFGRTRRGRYSAGTAESSKFYNSSMYWDEFIWGGAWMYYATGNVTYLNLITQPTMAKHAGAFWGGPYYGVFSWDNKLAGAQLLLSRLRLFLSPGYPYEEILRTFHNQTSIVMCSYLPIFNKFNRTNGGLIELNHGAPQPLQYSVNAAFLATLYSDYLDAADTPGWYCGPNFYSTSVLRDFARSQIDYILGKNPRKMSYVVGFGTKYPRHVHHRGASIPKNKVKYNCKGGWKWRDSKKPNPNTIEGAMVAGPDKRDGYRDVRMNYNYTEPTLAGNAGLVAALVALSGEEEATGKIDKNTIFSAVPPLFPTPPPPPAPWKP
B2: KOR1N, N-terminal part of KOR1 with the transmembrane domain (AA 1 to 94), MbYTH fusion (domain or fragment, UniProt Q38890 1-94)
chain: MYGRDPWGGPLEINTADSATDDDRSRNLNDLDRAALSRPLDETQQSWLLGPTEQKKKKYVDLGCIIVSRKIFVWTVGTLVAAALLAGFITLIVK
B3: KOR1C, transmembrane domain plus the C-terminal part of KOR1 (AA 70 to 621), MbYTH fusion (domain or fragment, UniProt Q38890 70-621)
chain: KIFVWTVGTLVAAALLAGFITLIVKTVPRHHPKTPPPDNYTIALHKALKFFNAQKSGKLPKHNNVSWRGNSGLQDGKGETGSFYKDLVGGYYDAGDAIKFNFPMAYAMTMLSWSVIEYSAKYEAAGELTHVKELIKWGTDYFLKTFNSTADSIDDLVSQVGSGNTDDGNTDPNDHYCWMRPEDMDYKRPVTTCNGGCSDLAAEMAAALASASIVFKDNKEYSKKLVHGAKVVYQFGRTRRGRYSAGTAESSKFYNSSMYWDEFIWGGAWMYYATGNVTYLNLITQPTMAKHAGAFWGGPYYGVFSWDNKLAGAQLLLSRLRLFLSPGYPYEEILRTFHNQTSIVMCSYLPIFNKFNRTNGGLIELNHGAPQPLQYSVNAAFLATLYSDYLDAADTPGWYCGPNFYSTSVLRDFARSQIDYILGKNPRKMSYVVGFGTKYPRHVHHRGASIPKNKVKYNCKGGWKWRDSKKPNPNTIEGAMVAGPDKRDGYRDVRMNYNYTEPTLAGNAGLVAALVALSGEEEATGKIDKNTIFSAVPPLFPTPPPPPAPWKP
B4: KOR1NOTMD, KOR1 without the transmembrane domain (AA 1 to 69+95 to 621), MbYTH prey (domain or fragment, UniProt Q38890)
chain: MYGRDPWGGPLEINTADSATDDDRSRNLNDLDRAALSRPLDETQQSWLLGPTEQKKKKYVDLGCIIVSRTVPRHHPKTPPPDNYTIALHKALKFFNAQKSGKLPKHNNVSWRGNSGLQDGKGETGSFYKDLVGGYYDAGDAIKFNFPMAYAMTMLSWSVIEYSAKYEAAGELTHVKELIKWGTDYFLKTFNSTADSIDDLVSQVGSGNTDDGNTDPNDHYCWMRPEDMDYKRPVTTCNGGCSDLAAEMAAALASASIVFKDNKEYSKKLVHGAKVVYQFGRTRRGRYSAGTAESSKFYNSSMYWDEFIWGGAWMYYATGNVTYLNLITQPTMAKHAGAFWGGPYYGVFSWDNKLAGAQLLLSRLRLFLSPGYPYEEILRTFHNQTSIVMCSYLPIFNKFNRTNGGLIELNHGAPQPLQYSVNAAFLATLYSDYLDAADTPGWYCGPNFYSTSVLRDFARSQIDYILGKNPRKMSYVVGFGTKYPRHVHHRGASIPKNKVKYNCKGGWKWRDSKKPNPNTIEGAMVAGPDKRDGYRDVRMNYNYTEPTLAGNAGLVAALVALSGEEEATGKIDKNTIFSAVPPLFPTPPPPPAPWKP

Assays:
Experiment in all cases: two-hybrid; split-ubiquitin membrane-based yeast two-hybrid (MbYTH) in S. cerevisiae NMY51; bait fused to Cub-TF, prey to NubG; 100 colonies of each combination spotted on selective medium with 3-AT, 30°C, three days, grown spots counted; called 'in vitro' by the paper
[1] = molecular target: T1, CESA7 (cellulose synthase, secondary cell wall), MbYTH fusion (Arabidopsis thaliana) (UniProt Q9SWW6)
T1 sequence: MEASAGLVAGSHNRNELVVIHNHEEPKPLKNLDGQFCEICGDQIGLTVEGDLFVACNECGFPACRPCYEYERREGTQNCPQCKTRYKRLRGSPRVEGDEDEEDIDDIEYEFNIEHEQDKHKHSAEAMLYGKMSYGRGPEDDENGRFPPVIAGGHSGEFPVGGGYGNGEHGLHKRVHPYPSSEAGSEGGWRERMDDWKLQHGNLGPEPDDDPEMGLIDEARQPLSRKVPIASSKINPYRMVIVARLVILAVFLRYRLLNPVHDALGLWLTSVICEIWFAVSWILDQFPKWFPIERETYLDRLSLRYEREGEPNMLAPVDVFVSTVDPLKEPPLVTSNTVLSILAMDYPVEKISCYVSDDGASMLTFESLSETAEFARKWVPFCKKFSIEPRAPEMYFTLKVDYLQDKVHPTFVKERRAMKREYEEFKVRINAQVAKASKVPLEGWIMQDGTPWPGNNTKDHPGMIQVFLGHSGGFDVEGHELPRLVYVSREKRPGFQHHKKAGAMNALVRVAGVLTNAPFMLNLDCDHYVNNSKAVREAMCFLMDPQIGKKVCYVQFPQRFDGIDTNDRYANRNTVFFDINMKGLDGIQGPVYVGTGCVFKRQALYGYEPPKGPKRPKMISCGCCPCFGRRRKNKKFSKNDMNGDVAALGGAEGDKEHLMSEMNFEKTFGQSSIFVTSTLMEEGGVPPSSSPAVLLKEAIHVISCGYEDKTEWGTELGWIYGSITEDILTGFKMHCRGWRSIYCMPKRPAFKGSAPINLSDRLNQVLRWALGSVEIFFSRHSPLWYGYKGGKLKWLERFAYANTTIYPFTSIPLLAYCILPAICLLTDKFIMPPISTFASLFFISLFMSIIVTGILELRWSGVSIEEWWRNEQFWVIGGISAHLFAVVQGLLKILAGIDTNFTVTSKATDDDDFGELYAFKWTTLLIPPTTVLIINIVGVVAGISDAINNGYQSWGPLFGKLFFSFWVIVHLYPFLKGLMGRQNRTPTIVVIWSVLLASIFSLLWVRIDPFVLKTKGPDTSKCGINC

[2] = molecular target: T2, CESA6 (cellulose synthase, primary cell wall), MbYTH fusion (Arabidopsis thaliana) (UniProt Q94JQ6)
T2 sequence: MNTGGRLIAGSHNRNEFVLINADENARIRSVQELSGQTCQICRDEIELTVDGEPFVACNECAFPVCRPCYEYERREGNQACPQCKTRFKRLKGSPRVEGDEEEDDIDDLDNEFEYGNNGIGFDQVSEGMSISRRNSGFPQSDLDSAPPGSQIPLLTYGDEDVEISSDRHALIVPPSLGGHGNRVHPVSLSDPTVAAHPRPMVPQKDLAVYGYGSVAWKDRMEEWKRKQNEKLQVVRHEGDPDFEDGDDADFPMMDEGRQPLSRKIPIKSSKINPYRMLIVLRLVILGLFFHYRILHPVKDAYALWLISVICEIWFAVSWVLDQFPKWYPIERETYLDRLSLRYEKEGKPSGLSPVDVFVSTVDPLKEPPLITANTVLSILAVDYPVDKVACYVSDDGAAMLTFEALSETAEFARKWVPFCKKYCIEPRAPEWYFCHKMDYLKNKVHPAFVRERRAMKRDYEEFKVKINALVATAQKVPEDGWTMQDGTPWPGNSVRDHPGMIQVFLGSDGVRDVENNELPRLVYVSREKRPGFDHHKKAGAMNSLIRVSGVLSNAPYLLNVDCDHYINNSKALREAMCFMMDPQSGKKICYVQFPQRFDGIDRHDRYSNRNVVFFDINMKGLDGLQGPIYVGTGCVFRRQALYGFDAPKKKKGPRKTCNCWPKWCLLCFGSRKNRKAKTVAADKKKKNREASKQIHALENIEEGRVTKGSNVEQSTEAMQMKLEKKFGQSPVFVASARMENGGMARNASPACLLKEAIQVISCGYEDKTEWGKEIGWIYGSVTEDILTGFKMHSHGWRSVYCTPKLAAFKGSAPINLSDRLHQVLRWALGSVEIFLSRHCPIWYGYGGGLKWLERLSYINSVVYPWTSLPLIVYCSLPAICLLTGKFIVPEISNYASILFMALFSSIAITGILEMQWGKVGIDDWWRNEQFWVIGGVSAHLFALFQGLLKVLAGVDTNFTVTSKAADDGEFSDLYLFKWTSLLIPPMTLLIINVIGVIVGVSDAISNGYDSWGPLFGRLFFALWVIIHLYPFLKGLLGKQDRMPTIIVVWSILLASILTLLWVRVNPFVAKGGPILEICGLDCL

[3] = molecular target: T3, KOR1C, transmembrane domain plus the C-terminal part of KOR1 (AA 70 to 621), MbYTH fusion (Arabidopsis thaliana) (UniProt Q38890)
T3 sequence: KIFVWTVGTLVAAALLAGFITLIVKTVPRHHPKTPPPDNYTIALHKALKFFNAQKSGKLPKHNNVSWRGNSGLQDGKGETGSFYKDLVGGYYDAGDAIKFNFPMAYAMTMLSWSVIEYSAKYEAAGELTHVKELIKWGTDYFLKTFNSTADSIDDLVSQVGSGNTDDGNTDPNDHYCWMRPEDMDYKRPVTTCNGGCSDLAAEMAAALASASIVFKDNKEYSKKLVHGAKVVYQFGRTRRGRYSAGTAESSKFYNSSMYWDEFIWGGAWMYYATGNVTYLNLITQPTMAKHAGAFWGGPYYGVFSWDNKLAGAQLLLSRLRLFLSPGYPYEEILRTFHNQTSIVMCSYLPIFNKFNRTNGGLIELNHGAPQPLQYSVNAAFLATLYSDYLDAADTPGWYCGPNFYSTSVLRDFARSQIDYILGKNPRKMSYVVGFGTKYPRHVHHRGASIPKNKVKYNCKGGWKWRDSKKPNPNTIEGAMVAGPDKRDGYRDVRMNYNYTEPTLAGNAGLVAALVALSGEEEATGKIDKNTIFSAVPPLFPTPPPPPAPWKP

| Binder | binding [1] | binding [2] | binding [3] |
| --- | --- | --- | --- |
| B1 | no binding | – | – |
| B2 | no binding | binds | binds weakly |
| B3 | no binding | binds | binds |
| KIFVWTVGTLVAAALLAGFITLIVK (domain or fragment, UniProt Q38890 70-94) [KOR1TMD, only the transmembrane domain of KOR1 (AA 70 to 94), MbYTH fusion] | no binding | binds | binds |
| B4 | no binding | no binding | no binding |
